Assay results: patent US10738090B2, “Engineered microcompartment protein and related methods and systems of engineering bacterial systems for non-native protein expression and purification” (priority 2017, dated 2020)

B1: HB-EncK71^TEVK138^TEV-His: HBCM2 fused to N-terminus of T. maritima encapsulin; TEV sites after K71 and K138, His-tag; non-cage forming (protein)
chain: MKWKSFIKKLTKAAKKVVTTAKKPLIVENLYFQGGGGGTEFLKRSFAPLTEKQWQEIDNRAREIFKTQLYGRKFVDVEGPYGWEYAAHPLGEVEVLSDENEVVKWGLRKGGENLYFQGGGSLPLIELRATFTLDLWELDNLERGKPNVDLSSLEETVRKVAEFEDEVIFRGCEKSGVKGLLSFEERKGGGGGENLYFQGHHHHHHGGGGGIECGSTPKDLLEAIVRALSIFSKDGIEGPYTLVINTDRWINFLKEEAGHYPLEKRVEECLRGGKIITTPRIEDALVVSERGGDFKLILGQDLSIGYEDREKDAVRLFITETFTFQVVNPEALILLK
B2: HB-EncK71^TEV (protein)
chain: MKWKSFIKKLTKAAKKVVTTAKKPLIVENLYFQGGGGGTEFLKRSFAPLTEKQWQEIDNRAREIFKTQLYGRKFVDVEGPYGWEYAAHPLGEVEVLSDENEVVKWGLRKGGENLYFQGGGSLPLIELRATFTLDLWELDNLERGKPNVDLSSLEETVRKVAEFEDEVIFRGCEKSGVKGLLSFEERKIECGSTPKDLLEAIVRALSIFSKDGIEGPYTLVINTDRWINFLKEEAGHYPLEKRVEECLRGGKIITTPRIEDALVVSERGGDFKLILGQDLSIGYEDREKDAVRLFITETFTFQVVNPEALILLK
B3: HB-EncD60^TEVK138^TEV-His: HB-Enc fusion with TEV site after D60 plus TEV-His insertion after K138; cage forming (protein)
chain: MKWKSFIKKLTKAAKKVVTTAKKPLIVENLYFQGGGGGTEFLKRSFAPLTEKQWQEIDNRAREIFKTQLYGRKFVDVEGPYGWEYAAHPLGEVEVLSDGGENLYFQGGGENEVVKWGLRKSLPLIELRATFTLDLWELDNLERGKPNVDLSSLEETVRKVAEFEDEVIFRGCEKSGVKGLLSFEERKGGGGGENLYFQGHHHHHHGGGGGIECGSTPKDLLEAIVRALSIFSKDGIEGPYTLVINTDRWINFLKEEAGHYPLEKRVEECLRGGKIITTPRIEDALVVSERGGDFKLILGQDLSIGYEDREKDAVRLFITETFTFQVVNPEALILLK

Tested on: TOP10 E. coli
Assay: Final OD600 of TOP10 E. coli cultures expressing the construct, arabinose inducible system
Type: cell-based
Settings: for OD600 after induction: TOP10, 40 μM arabinose, 4-5 h induction at 37° C.

| Molecule | OD600 after induction | cell density (OD600) (TOP10, arabinose induction, concentration not given) |
| --- | --- | --- |
| B1 | 2.7 |  |
| B2 | 2.7 |  |
| B3 |  | 2.3 |
